Source: the supplement of paper PMC10849652
Some of the results follow.

Chains of the proteins cited; added tags and fusions are not shown. Lines headed by an entry give the natural chain unless they say otherwise; changes in a name come on top.
UniProt P17482: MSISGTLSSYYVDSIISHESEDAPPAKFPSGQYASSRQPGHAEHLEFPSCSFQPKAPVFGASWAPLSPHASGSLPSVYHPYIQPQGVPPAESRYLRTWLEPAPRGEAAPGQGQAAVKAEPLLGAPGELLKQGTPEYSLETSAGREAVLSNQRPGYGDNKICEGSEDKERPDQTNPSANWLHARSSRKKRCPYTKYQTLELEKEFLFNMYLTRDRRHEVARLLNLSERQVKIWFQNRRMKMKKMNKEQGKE
UniProt P17066, whole entry, looked up: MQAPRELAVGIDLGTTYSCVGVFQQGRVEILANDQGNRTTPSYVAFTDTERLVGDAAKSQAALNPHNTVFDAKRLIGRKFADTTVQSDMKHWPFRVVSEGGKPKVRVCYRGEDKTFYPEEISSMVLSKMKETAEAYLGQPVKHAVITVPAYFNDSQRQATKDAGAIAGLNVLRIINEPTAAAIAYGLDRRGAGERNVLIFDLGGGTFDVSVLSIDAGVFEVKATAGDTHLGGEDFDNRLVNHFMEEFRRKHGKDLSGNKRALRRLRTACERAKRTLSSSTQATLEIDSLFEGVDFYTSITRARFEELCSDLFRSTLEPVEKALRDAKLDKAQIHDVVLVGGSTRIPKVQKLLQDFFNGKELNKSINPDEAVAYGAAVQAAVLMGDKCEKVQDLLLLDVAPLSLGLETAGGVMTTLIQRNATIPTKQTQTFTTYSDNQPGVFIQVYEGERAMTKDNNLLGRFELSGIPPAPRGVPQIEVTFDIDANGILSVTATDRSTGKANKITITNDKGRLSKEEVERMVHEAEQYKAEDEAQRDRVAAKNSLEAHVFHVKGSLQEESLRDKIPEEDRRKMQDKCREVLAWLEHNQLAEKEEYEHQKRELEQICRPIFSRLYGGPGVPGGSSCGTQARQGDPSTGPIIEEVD
UniProt P04792, whole entry, looked up: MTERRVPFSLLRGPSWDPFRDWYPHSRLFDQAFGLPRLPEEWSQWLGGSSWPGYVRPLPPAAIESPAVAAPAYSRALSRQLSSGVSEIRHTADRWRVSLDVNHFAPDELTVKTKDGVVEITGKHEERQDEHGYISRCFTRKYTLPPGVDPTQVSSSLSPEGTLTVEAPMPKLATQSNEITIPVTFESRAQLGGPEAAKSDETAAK
UniProt Q9NZL4: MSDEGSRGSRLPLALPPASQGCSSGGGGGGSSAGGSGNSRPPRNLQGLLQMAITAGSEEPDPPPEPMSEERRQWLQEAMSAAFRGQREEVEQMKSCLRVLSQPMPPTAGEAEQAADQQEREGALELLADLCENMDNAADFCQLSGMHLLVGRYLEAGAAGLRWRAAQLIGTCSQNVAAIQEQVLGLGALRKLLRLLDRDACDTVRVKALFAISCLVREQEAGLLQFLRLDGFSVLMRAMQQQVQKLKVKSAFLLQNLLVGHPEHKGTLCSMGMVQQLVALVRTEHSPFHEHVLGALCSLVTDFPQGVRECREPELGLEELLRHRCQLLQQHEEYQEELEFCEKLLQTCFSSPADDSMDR
UniProt Q58FF7, whole entry, looked up: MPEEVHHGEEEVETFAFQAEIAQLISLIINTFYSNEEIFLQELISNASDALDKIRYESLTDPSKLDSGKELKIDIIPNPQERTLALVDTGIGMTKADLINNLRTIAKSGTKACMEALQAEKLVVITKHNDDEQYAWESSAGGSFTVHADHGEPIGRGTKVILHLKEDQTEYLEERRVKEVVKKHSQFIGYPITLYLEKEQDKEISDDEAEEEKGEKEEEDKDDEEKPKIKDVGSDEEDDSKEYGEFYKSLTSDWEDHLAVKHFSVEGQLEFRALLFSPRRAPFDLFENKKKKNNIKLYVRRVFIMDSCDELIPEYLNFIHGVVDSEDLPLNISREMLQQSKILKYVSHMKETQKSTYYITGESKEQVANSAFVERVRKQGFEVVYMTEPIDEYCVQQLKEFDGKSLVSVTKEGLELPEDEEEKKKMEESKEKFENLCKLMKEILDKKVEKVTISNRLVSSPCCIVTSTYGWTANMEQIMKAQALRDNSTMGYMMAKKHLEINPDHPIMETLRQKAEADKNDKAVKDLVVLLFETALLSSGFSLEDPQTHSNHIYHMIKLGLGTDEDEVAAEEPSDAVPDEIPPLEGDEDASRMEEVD
UniProt Q9Y547: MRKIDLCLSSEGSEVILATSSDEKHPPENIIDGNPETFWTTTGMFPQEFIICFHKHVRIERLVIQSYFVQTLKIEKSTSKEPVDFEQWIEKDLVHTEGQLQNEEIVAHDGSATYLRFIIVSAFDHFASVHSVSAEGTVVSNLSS
UniProt P09651: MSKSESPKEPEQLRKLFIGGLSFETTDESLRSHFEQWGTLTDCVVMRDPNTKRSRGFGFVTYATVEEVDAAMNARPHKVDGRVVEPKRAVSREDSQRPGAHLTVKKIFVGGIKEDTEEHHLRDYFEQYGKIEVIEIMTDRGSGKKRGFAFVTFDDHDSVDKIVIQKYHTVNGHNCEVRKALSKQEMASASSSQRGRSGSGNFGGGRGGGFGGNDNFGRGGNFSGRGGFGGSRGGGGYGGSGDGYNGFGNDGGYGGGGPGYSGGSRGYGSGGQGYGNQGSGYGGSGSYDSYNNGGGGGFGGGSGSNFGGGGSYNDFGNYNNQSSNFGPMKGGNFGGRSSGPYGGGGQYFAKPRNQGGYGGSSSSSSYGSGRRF
UniProt Q15651: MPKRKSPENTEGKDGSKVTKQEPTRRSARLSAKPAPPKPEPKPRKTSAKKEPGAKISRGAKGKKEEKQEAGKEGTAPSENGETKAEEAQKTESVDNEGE
UniProt Q92506: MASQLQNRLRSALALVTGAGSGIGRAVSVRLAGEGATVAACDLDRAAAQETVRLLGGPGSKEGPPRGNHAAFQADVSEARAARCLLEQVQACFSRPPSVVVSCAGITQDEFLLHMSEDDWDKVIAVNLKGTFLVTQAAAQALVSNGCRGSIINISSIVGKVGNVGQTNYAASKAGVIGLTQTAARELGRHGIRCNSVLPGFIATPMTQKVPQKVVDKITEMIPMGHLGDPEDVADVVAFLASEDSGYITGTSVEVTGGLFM
UniProt Q0VDF9: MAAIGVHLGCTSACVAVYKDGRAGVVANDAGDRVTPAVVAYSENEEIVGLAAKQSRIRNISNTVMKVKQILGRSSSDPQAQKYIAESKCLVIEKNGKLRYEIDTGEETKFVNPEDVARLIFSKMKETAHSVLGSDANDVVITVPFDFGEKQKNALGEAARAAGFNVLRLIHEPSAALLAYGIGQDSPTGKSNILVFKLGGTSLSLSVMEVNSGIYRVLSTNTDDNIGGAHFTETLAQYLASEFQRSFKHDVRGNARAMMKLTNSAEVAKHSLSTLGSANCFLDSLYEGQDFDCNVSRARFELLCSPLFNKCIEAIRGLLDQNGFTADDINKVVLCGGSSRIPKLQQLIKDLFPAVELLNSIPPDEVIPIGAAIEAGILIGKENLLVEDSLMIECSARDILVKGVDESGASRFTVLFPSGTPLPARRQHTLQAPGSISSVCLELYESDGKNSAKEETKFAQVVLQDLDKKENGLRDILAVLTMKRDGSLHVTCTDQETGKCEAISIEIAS
UniProt O60921: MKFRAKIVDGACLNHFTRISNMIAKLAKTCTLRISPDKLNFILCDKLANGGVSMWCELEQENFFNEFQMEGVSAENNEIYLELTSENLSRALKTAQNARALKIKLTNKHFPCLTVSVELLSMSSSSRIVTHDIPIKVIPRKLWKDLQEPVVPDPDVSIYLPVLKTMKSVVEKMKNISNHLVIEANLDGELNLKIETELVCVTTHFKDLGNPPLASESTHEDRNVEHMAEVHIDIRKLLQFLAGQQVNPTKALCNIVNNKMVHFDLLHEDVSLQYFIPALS
UniProt Q9BW71: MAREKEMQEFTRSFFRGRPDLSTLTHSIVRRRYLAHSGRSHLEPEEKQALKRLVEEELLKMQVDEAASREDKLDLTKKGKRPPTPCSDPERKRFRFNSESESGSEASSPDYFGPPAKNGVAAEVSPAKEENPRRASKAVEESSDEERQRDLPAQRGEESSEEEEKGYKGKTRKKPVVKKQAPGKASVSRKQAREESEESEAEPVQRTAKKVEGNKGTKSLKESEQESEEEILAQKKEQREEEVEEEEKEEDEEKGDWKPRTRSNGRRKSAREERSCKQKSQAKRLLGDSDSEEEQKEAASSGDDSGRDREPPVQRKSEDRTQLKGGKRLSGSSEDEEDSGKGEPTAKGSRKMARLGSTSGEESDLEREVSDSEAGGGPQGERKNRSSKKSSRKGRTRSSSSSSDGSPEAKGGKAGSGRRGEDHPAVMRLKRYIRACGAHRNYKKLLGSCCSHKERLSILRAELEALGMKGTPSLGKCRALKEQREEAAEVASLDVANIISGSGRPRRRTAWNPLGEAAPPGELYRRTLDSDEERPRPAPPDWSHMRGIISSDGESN
UniProt Q58FG1, whole entry, looked up: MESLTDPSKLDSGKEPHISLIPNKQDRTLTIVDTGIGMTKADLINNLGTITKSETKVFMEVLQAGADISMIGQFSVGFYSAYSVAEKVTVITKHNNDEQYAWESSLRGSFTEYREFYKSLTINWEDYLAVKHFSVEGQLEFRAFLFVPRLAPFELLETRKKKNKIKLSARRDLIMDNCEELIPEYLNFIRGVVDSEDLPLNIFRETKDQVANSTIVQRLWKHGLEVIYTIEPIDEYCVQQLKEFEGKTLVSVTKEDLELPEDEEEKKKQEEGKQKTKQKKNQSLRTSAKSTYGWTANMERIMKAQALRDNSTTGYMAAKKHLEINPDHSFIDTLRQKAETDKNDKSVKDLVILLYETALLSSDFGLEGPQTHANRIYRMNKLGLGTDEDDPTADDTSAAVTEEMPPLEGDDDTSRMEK
UniProt Q14103: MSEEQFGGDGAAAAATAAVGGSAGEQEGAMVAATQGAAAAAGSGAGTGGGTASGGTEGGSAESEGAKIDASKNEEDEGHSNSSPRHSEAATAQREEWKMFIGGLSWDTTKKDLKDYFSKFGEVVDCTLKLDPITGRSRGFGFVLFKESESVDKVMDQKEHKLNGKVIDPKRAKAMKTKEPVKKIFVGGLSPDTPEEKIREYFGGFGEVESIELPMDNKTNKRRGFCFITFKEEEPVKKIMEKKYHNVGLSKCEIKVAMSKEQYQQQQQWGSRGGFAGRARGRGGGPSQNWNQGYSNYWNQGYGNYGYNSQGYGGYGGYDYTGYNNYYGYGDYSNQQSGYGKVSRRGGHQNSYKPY
UniProt P35914: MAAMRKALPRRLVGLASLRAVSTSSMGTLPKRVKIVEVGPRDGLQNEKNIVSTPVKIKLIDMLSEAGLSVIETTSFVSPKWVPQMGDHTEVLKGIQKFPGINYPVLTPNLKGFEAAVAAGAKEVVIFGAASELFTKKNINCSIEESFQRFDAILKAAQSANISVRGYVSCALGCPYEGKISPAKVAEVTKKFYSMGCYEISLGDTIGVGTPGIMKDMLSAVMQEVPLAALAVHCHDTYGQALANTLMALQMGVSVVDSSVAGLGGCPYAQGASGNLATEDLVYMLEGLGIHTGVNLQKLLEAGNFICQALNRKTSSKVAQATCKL
UniProt Q53GQ0: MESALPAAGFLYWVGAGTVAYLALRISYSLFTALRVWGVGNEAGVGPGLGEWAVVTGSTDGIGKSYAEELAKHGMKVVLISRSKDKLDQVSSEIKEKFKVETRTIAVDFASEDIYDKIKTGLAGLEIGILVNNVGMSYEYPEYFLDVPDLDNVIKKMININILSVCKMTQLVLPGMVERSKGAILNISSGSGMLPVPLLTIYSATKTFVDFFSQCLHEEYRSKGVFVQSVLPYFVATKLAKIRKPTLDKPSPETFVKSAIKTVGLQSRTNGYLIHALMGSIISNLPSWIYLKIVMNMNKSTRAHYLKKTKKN
UniProt Q14773: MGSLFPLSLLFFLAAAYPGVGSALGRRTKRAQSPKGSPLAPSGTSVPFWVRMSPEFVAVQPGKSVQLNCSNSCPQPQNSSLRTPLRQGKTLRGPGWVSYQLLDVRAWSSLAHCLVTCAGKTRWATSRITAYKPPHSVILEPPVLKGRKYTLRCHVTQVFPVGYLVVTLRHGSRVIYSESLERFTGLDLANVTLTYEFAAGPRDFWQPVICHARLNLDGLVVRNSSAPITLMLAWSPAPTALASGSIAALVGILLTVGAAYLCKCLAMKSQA
UniProt P34931, whole entry, looked up: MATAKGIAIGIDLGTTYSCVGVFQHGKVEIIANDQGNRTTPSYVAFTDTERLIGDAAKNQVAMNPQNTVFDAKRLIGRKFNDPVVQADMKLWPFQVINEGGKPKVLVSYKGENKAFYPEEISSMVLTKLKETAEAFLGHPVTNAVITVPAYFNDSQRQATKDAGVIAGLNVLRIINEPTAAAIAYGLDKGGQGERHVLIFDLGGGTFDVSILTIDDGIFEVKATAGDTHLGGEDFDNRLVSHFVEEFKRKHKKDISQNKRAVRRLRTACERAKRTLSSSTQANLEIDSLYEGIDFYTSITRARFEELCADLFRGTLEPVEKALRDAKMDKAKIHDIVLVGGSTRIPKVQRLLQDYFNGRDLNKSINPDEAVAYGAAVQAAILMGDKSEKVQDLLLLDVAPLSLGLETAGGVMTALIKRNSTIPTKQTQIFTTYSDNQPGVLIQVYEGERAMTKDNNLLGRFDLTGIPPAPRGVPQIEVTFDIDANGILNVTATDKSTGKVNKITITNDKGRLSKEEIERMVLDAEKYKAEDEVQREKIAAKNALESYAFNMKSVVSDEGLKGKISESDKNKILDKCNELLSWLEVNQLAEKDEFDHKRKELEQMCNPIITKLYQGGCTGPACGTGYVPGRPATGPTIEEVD

Compound: COc1cc(C(=O)O)ccc1NC(=O)[C@@H]1N[C@@H](CC(C)(C)C)[C@](C#N)(c2ccc(Cl)cc2F)[C@H]1c1cccc(Cl)c1F [idasanutlin]
Assay: log2 fold change, soluble protein after heating vs DMSO (PISA); higher = thermal stabilisation; K562 cells, 10 uM, 30 min; active = over 0.2 and 3.5 SD of the protein, either way, in both replicates (recomputed)
In short: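 K562 cells at 2×10^6 cells/mL were treated with 10 μM compound for 30 min. Aliquots were heated for 3 min across 48°C-58°C, pooled, and extracted in PBS with 0.5% NP-40 at 4°C; soluble protein was the supernatant after 21,000xg for 90 min. Soluble protein was quantified by TMTpro 16plex LC-MS/MS with channel sums equalised, and reported as log2 fold change in thermal stability against DMSO controls, with values from duplicates.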

log2 fold change, inactive:
HOXB9 (UniProt P17482) 0.014
HSPA6 (UniProt P17066) -0.011
HSPB1 (UniProt P04792) 0.036
HSPBP1 isoform 3 (UniProt Q9NZL4) -0.098
HSP90AB3P (UniProt Q58FF7) -0.23
HSPB11 (UniProt Q9Y547) -0.058
HNRNPA1 (UniProt P09651) 0.224
HMGN3 (UniProt Q15651) 0.11
HSD17B8 (UniProt Q92506) -0.05
HSPA14 (UniProt Q0VDF9) 0.02
HUS1 (UniProt O60921) -0.089
HIRIP3 (UniProt Q9BW71) -0.049
HSPH1 (UniProt Q92598) -0.023
HSP90AA4P (UniProt Q58FG1) 0.032
HNRNPD isoform 4 (UniProt Q14103) 0.051
HYOU1 (UniProt Q9Y4L1) 0.032
HMGCL (UniProt P35914) -0.024
HGS (UniProt O14964) -0.032
HSD17B12 (UniProt Q53GQ0) -0.169
HMGN5 (UniProt P82970) -0.046
HSPG2 (UniProt P98160) -0.028
HIST2H2BF isoform 2 (UniProt Q5QNW6) 0.437
HIBADH (UniProt P31937) -0.004
HIST2H3A (UniProt Q71DI3) 0.508
ICAM4 (UniProt Q14773) -0.011
HK1 isoform 2 (UniProt P19367) -0.01
HTRA2 (UniProt O43464) -0.014
HSPA1L (UniProt P34931) 0.118
HNRNPD (UniProt Q14103) 0.07
HNRNPUL1 (UniProt Q9BUJ2) 0.03
HIBCH (UniProt Q6NVY1) -0.027

Quoted at random: 2 records from the list
log2 fold change, inactive:
HSPA14 (UniProt Q0VDF9) 0.02
HSP90AA4P (UniProt Q58FG1) 0.032
